Results published in US20240197804A1, “PHARMACEUTICAL AND NUTRACEUTICAL COMPOSITION COMPRISING A MIXTURE OF PLANTS FOR THE PREVENTION AND TREATMENT OF NEURODEGENERATIVE DISEASES” (LABORATOIRE AROMA SCIENCE, priority 2021, published 2024).

Experiments:
[1] = test system: mice intoxicated with the Aβ 25-35 peptide; assay: Spontaneous alternation behavior test in a Y-maze (spatial working memory); assay type: in vivo, mouse; settings: daily oral administration of 1 mg/kg, D-14 to D10; test at D8
[2] = test system: mice intoxicated with the Aβ 25-35 peptide; assay: Passive avoidance test (long-term contextual memory); assay type: in vivo, mouse; settings: daily oral administration of 1 mg/kg

SMILES: COc1cc2c(cc1OC)C(=O)C(CC1CCN(Cc3ccccc3)CC1)C2 (centres unmarked) [Donepezil]
- deleterious effect of Aβ 25-35 on spatial working memory (spontaneous alternation) [1]: significantly avoided
- deleterious effect of Aβ 25-35 on long-term contextual memory (passive avoidance) [2]: significantly avoided
